Measurements as given in article PMC6541591.

Target: AKT (human (endogenous in MCF7 and MDA-MB-231))
Assay: co-IP; competitive co-IP: lysates of stably transfected MCF7 and MDA-MB-231 cells with or without TC2N overexpression, IP with AKT or EBP1 antibodies, WB with EBP1 or AKT antibodies; normal IgG as negative control

binding: binds
B1: EBP1 (protein, UniProt Q9UQ80 1-394)
chain: MSGEDEQQEQTIAEDLVVTKYKMGGDIANRVLRSLVEASSSGVSVLSLCEKGDAMIMEETGKIFKKEKEMKKGIAFPTSISVNNCVCHFSPLKSDQDYILKEGDLVKIDLGVHVDGFIANVAHTFVVDVAQGTQVTGRKADVIKAAHLCAEAALRLVKPGNQNTQVTEAWNKVAHSFNCTPIEGMLSHQLKQHVIDGEKTIIQNPTDQQKKDHEKAEFEVHEVYAVDVLVSSGEGKAKDAGQRTTIYKRDPSKQYGLKMKTSRAFFSEVERRFDAMPFTLRAFEDEKKARMGVVECAKHELLQPFNVLYEKEGEFVAQFKFTVLLMPNGPMRITSGPFEPDLYKSEMEVQDAELKALLQSSASRKTQKKKKKKASKTAENATSGETLEENEAGD

These are yes or no findings as the source states them, for the method shown. Binding seen in cells or lysates may run through a third protein. Binding can be weak; no strength is given.
